Values joined by “and” are separate entries in the source; they are usually repeats but may differ in a detail not shown here. Identical values can stand only once. The shares of active, inactive and inconclusive entries below differ from those in the screen. A potency beside an inconclusive call is a rough fit, not a confirmed value. Active and inactive are the calls of the source. The calls were made as follows: active = hit-call score of the fitted dose curve at least 0.9, where 1 is the maximum; inconclusive = response in the unintended direction; inactive = score below 0.9.
System: not listed separately
Experiment: TOX21_p53_BLA_p5_viability: Viability Assessment in the Tox21 HCT-116 p53 Agonism Beta-lactamase Assay, Phase 5 (AID 2283600)
How it was run: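 After the 460/530 nm beta-lactamase measurement, the wells received an ATP-detection luciferase reagent; signal was read 30 min later at RT. Compound treatment lasted 16 h on cells pre-incubated 5 h post-seeding.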

Protein sequences, listed by entry. Tags and fused reporters are not part of them.
UniProt P04637, whole entry, looked up: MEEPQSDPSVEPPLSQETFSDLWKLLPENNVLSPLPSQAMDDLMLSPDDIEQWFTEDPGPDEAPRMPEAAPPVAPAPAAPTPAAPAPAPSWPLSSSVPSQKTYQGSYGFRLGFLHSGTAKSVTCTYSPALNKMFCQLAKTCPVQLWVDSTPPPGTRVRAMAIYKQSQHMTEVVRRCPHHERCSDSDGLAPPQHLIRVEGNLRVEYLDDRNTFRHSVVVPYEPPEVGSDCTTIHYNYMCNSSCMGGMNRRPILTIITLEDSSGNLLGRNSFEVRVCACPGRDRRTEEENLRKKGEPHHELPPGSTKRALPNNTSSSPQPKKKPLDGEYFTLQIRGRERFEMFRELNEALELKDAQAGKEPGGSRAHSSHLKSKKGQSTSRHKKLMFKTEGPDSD

| SMILES | AC50 | outcome |
| --- | --- | --- |
| CN1CCCCC1CCN1c2ccccc2Sc2ccc(S(C)=O)cc21 (stereo not drawn) | inconclusive: 29.1 µM and inconclusive: 23 µM |  |
| O=S(=O)(O)CCS | inconclusive: 23 µM |  |
| O=C(O)c1cc(=O)c2ccccc2o1 |  | inactive |
| O=S(O)CO | inconclusive: 45.9 µM and inconclusive: 23 µM |  |
| C=C(C)CC(C)(C)C | inconclusive: 44.9 µM | inactive |
| CNC(=O)CN(CCN(CCN(CC(=O)[O-])CC(=O)NC)CC(=O)[O-])CC(=O)[O-].O.[Gd+3] | inconclusive: 41.5 µM |  |
| CC(C)CNCC(C)C |  | inactive |
| CCCCOc1ccc(OCCCN2CCOCC2)cc1 |  | inactive |
| ONc1ccccc1 | inconclusive: 50.3 µM |  |
| CCOC(=O)C1=C[C@]2(CC)CCCN3CCc4c(n1c1ccccc41)[C@@H]32 | inconclusive: 328 nM and inconclusive: 190 nM |  |
| CCN1CCCC1CNC(=O)c1cc(S(=O)(=O)CC)c(N)cc1OC (stereo not drawn) | inconclusive: 41.4 µM |  |
| CC/C=C(\C(=O)N[C@@H]1C(=O)N2C(C(=O)OCOC(=O)C(C)(C)C)=C(COC(N)=O)CS[C@H]12)c1csc(N)n1 | inconclusive: 23 µM | inactive |
| C[C@H](CCC(=O)O)[C@H]1CC[C@H]2[C@@H]3[C@H](O)C[C@@H]4C[C@H](O)CC[C@]4(C)[C@H]3CC[C@]12C | inconclusive: 46.2 µM and inconclusive: 10.3 µM |  |
| Nc1c(N=Nc2ccc(-c3ccc(N=Nc4cc(S(=O)(=O)O)c5ccccc5c4N)cc3)cc2)cc(S(=O)(=O)O)c2ccccc12 | inconclusive: 23 µM |  |

Biological target: Cellular tumor antigen p53 (Homo sapiens) (UniProt P04637)
Experiment: TOX21_p53_BLA_p4_ratio: Tox21 HCT-116 p53 Agonism Beta-lactamase Assay, Ratio, Phase 4 (AID 2283601)
How it was run: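 HCT116 cells carrying an inducible beta-lactamase reporter were plated at 4000 cells/well, rested 5 h, then exposed to compounds in DMSO (217-fold dilution) for 16 h at 37C. CCF4-AM substrate was loaded 2 h at room temperature; 460/530 nm emission ratio scored gain-of-signal versus DMSO.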

| SMILES | AC50 | outcome |
| --- | --- | --- |
| CN1CCCCC1CCN1c2ccccc2Sc2ccc(S(C)=O)cc21 (stereo not drawn) | inconclusive: 37.8 µM |  |
| O=S(O)CO |  | inactive |
| C=C(C)CC(C)(C)C | inconclusive: 85.5 µM |  |
| CC1(C)OC(=O)NC1=O | inconclusive: 23 µM |  |
| C[C@H](CCC(=O)O)[C@H]1CC[C@H]2[C@@H]3[C@H](O)C[C@@H]4C[C@H](O)CC[C@]4(C)[C@H]3CC[C@]12C | inconclusive: 17.5 µM | inactive |
| Nc1c(N=Nc2ccc(-c3ccc(N=Nc4cc(S(=O)(=O)O)c5ccccc5c4N)cc3)cc2)cc(S(=O)(=O)O)c2ccccc12 | inconclusive: 23 µM |  |

Reference: PubChem BioAssay (EPA / NIEHS)
